Consider 1 sequence from publication PMC6208384 (2018).

The exact form of at least one protein or probe is not confirmed.

The test system of series [1] is Fab BL3-6. Nature of the series: X-ray crystallography (1.8 A). Conditions: OTB-SO3 bound, Mg2+; recombinant protein; label: 5'-32P (filter binding).
The test system of series [2] is Fab BL3-6. Nature of the series: X-ray crystallography (2.0 A). The following applies: apo (no fluorophore), Mg2+; recombinant protein; label: 5'-32P (filter binding).

As to “GGAUGCGCCUUGAAAAGCCUGCGAAACACGCAGCUGGUGAAUGACAGCUAUGGCGCAUCC [DIR2s_GAAACAC RNA]”, the binding result in the series on Fab BL3-6 [1] and with Fab BL3-6 [2] was “binds” throughout.
